Results on 16 molecules are retold here after patent publication US20260028400A1.

The chains behind the UniProt entries cited, without tags or fusion partners. Residues count along the entry.
human ROR1 (Q01973, residues 30-403): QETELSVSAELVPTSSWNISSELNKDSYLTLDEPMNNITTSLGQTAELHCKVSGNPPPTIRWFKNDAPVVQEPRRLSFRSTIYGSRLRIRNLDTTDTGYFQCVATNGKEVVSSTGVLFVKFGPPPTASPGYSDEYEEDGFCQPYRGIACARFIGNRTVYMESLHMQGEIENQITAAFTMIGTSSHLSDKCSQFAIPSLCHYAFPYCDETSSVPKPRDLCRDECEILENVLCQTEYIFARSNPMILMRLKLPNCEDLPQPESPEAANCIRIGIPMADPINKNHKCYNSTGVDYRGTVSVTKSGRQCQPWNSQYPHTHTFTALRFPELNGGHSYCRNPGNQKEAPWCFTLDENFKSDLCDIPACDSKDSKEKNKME
FZD+KRD (Q01973, residues 165-395): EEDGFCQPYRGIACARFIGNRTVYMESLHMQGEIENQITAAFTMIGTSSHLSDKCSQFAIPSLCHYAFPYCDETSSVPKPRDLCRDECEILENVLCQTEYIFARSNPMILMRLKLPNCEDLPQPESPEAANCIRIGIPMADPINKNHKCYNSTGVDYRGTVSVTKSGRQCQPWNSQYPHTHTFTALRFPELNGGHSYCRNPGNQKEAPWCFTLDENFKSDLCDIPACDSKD
KRD (Q01973, residues 308-395): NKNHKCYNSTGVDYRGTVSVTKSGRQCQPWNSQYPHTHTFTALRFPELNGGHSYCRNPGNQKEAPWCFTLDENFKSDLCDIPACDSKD
UniProt Q9Z139, residues 30-403: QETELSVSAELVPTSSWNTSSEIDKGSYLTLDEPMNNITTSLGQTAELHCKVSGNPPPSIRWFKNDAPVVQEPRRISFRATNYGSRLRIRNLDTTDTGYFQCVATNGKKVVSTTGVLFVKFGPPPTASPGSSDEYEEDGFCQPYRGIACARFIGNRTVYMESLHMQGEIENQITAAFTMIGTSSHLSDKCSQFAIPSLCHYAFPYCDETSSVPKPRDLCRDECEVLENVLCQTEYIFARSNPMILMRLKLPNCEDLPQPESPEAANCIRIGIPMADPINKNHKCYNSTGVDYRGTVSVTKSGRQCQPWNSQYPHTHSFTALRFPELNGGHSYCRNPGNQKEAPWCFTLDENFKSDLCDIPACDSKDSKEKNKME

In assay [1] the target is human ROR1 (human) (UniProt Q01973). Briefly: SPR (Biacore 3000). (In general: SPR reads the build-up and loss of mass on a sensor chip optically.)
The target in assay [2] is mouse ROR1 (mouse) (UniProt Q9Z139). Briefly: SPR (Biacore 3000).
For assay [3], the target named is human ROR1 (human) (UniProt Q01973). Briefly: ELISA, IgG on coated human ROR1, OD450. Background: An ELISA detects its analyte on a solid surface through an enzyme-linked reagent.
Assay [4] addresses mouse ROR1 (mouse) (UniProt Q9Z139). The experiment in a line: ELISA, IgG on coated mouse ROR1, OD450.
In assay [5] the target is KRD (human) (UniProt Q01973). The experiment in a line: ELISA, IgG on coated domain, OD450.
Assay [6] has as its target FZD+KRD (human) (UniProt Q01973). The experiment in a line: scFv ELISA on coated domain, anti-HA-HRP, OD450.

Results are given in words; binding and its absence hold for the method and conditions named. Some results given as binding are weak or reduced against the parent protein; the word gives no strength.

B1: P015042v1 (antibody, V domains shown)
VH: EVQLLESGGGLVQPGGSLRLSCAASGFTFSDYAMSWVRQAPGKGLEWVSVISSDGGSIYYADSVKGRFTISRDNSKNTLYLQMNSLRAEDTAVYYCAKDRSRDMEVDFDYWGQGTLVTVSS
VL: QSVLTQPPSASGTPGQRVTISCSGSSSNIGSNYVTWYQQLPGTAPKLLIYDSSQRPSGVPDRFSGSKSGTSASLAISGLRSEDEADYYCGTWDYSLNGYVFGGGTKLTVL
As for B1, the binding result in assay [1], in assay [2], in assay [3] and in assay [4] was “binds” in each case.

B2: P015042v1-2 (antibody, V domains shown)
VH: EVQLLESGGGLVQPGGSLRLSCAASGFTFSDYAMSWVRQAPGKGLEWVSVISSDKGSIYYADSVKGRFTISRDNSKNTLYLQMNSLRAEDTAVYYCAKDRSRDMEVDFDYWGQGTLVTVSS
VL: QSVLTQPPSASGTPGQRVTISCSGSSSNIGSNYVTWYQQLPGTAPKLLIYDSSQRPSGVPDRFSGSKSGTSASLAISGLRSEDEADYYCGTWDYSLNGYVFGGGTKLTVL
In the case of B2, the binding entry in assay [1], in assay [2], in assay [3] and in assay [4] was “binds” throughout.

B3: P015001 (antibody, V domains shown)
VH: EVQLLESGGGLAQPGGSLRLSCAASGFTFSNYDMSWVRQAPGKGPEWVSGIYSGNSNTYYADSVKGRFTISRDNSKNTLYLQMNSLRAEDTAVYYCARDLQYTEWAGFDYWGQGTLVTVSS
VL: QSVLTQPPSASGTPGQRVTISCSGSSSNIGSNDVTWYQQLPGTAPKLLIYDDSKRPSGVPDRFSGSKSGTSASLAISGLRSEDEADYYCAAWDDSLSGYVFGGGTKLTVL
Regarding B3, the binding entry in assay [1] is “binds”; in assay [2] it was “binds”; in assay [5], “no binding (tested: 300 nM)”; in assay [3] it was “binds”; in assay [4] it was “binds”.

B4: P015042v1-3 (antibody, V domains shown)
VH: EVQLLESGGGLVQPGGSLRLSCAASGFTFSDYAMSWVRQAPGKGLEWVSVISSDGGSIYYADSVKGRFTISRDNSKNTLYLQMNSLRAEDTAVYYCAKDRSRDMEVDFDYWGQGTLVTVSS
VL: QSVLTQPPSASGTPGQRVTISCSGSSSNIGSNYVTWYQQLPGTAPKLLIYDASQRPSGVPDRFSGSKSGTSASLAISGLRSEDEADYYCGTWDYSLNGYVFGGGTKLTVL
B4: the binding result in assay [1], in assay [2], in assay [3] and in assay [4] was “binds” in each case.

B5: P015043 (antibody, V domains shown)
VH: EVQLLESGGGLVQPGGSLRLSCAASGFTFSNYDMSWVRQAPGKGLEWVSWISPGGSSIYYADSVKGRFTISRDNSKNTLYLQMNSLRAEDTAVYYCAKTLTRFDYWGQGTLVTVSS
VL: QSVLTQPPSASGTPGQRVTISCTGSSSNIGNNNVSWYQQLPGTAPKLLIYYDSHRPSGVPDRFSGSKSGTSASLAISGLRSEDEADYYCGTWDSSLSGYVFGGGTKLTVL
Consider B5, for which the binding result in assay [5] is reported as “no binding (tested: 300 nM)”.

B6: P015042v1-5 (antibody, V domains shown)
VH: EVQLLESGGGLVQPGGSLRLSCAASGFTFSDYAMSWVRQAPGKGLEWVSVISSDGGSIYYADSVKGRFTISRDNSKNTLYLQMNSLRAEDTAVYYCAKDRSRDMEVDFDYWGQGTLVTVSS
VL: QSVLTQPPSASGTPGQRVTISCSGSSSNIGSNYVTWYQQLPGTAPKLLIYDSSQRPSGVPDRFSGSKSGTSASLAISGLRSEDEADYYCGTWDYSLNAYVFGGGTKLTVL
On to B6, for which the binding result in assay [1], in assay [2], in assay [3] and in assay [4] was “binds” each time.

B7: P015042v1-6 (antibody, V domains shown)
VH: EVQLLESGGGLVQPGGSLRLSCAASGFTFSDYAMSWVRQAPGKGLEWVSVISSDKGSIYYADSVKGRFTISRDNSKNTLYLQMNSLRAEDTAVYYCAKDRSRDMEVDFDYWGQGTLVTVSS
VL: QSVLTQPPSASGTPGQRVTISCSGSSSNIGSNYVTWYQQLPGTAPKLLIYDKSQRPSGVPDRFSGSKSGTSASLAISGLRSEDEADYYCGTWDYSLNAYVFGGGTKLTVL
Regarding B7, the binding entry in assay [1], in assay [2], in assay [3] and in assay [4] was “binds” each time.

B8: P015007 scFv (scFv, V domains shown)
VH: EVQLLESGGGLVQPGGSLRLSCAASGFTFSGYSMSWVRQAPGKGLEWVSGISYGGSSISYADSVKGRFTISRDNSKNTLYLQMNSLRAEDTAVYYCAKPVRRWARFRLSYDDAMDVWGQGTLVTVSS
VL: QSVLTQPPSASGTPGQRVTISCSGSSSNIGNNAVNWYQQLPGTAPKLLIYADSHRPSGVPDRFSGSKSGTSASLAISGLRSEDEADYYCGTWDSSLNGYVFGGGTKLTVL
Turning to B8, the binding entry in assay [6] was “binds”.

B9: P015042v1-1 (antibody, V domains shown)
VH: EVQLLESGGGLVQPGGSLRLSCAASGFTFSDYAMSWVRQAPGKGLEWVSVISSDVGSIYYADSVKGRFTISRDNSKNTLYLQMNSLRAEDTAVYYCAKDRSRDMEVDFDYWGQGTLVTVSS
VL: QSVLTQPPSASGTPGQRVTISCSGSSSNIGSNYVTWYQQLPGTAPKLLIYDSSQRPSGVPDRFSGSKSGTSASLAISGLRSEDEADYYCGTWDYSLNGYVFGGGTKLTVL
B9: the binding entry in assay [1], in assay [2], in assay [3] and in assay [4] was “binds” in each case.

B10: P015005 scFv (scFv, V domains shown)
VH: EVQLLESGGGLVQPGGSLRLSCAASGFTFSDYSMSWVRQAPGKGLEWVSGISHNGGSTYYADSVKGRFTISRDNSKNTLYLQMSSLRAEDTAVYYCARDVSRWSKTRWSYDNAMDVWGQGTLVTVSS
VL: QSVLTQPPSASGTPGQRVTISCSGSSSNIGSNYVNWYQQLPGTAPKLLIYSDSHRPSGVPDRFSGSKSGTSASLAISGLRSEDEADYYCGSWDSSLNAYVLGGGTKLTVL
For the molecule B10, the binding result in assay [6] is recorded as “binds”.

B11: P015042 (antibody, V domains shown)
VH: EVQLLESGGGLVQPGGSLRLSCAASGFTFSDYAMSWVRQAPGKGLEWVSVISSDGGSIYYADSVKGRFTISRDNSKNTLYLQMNSLRAEDTAVYYCAKDRSRDMEVDFDYWGQGTLVTVSS
VL: QSVLTQPPSASGTPGQRVTISCSGSSSNIGSNYVTWYQQLPGTAPKLLIYDSSQRPSGVPDRFSGSKSGTSASLAISGLRSEDEADYYCGTWDYSLSGYVFGGGTKLTVL
B11: the binding result in assay [1] was “binds”; in assay [2], “binds”; in assay [5], “no binding (tested: 300 nM)”; in assay [3], “binds”; in assay [4], “binds”.

B12: P015006 scFv (scFv, V domains shown)
VH: EVQLLESGGGLVQPGGSLRLSCAASGFTFSNYSMSWVRQAPGKGLEWVSAISHGSGSIYYADSVKGRFTISRDNSKNTLYLQMNSLRAEDTAVYYCAKPISAWSHIRMSYAYGMDVWGQGTLVTVSS
VL: QSVLTQPPSASGTPGQRVTISCTGSSSNIGSNYVSWYRQLPGTAPKLLIYSDSNRPSGVPDRFSGSKSGTSASLAISGLRSEDEADYYCATWDASLSAYVFGGGTKLTVL
Take B12: in assay [6], the binding entry is on record as “binds”.

B13: P015042v1-4 (antibody, V domains shown)
VH: EVQLLESGGGLVQPGGSLRLSCAASGFTFSDYAMSWVRQAPGKGLEWVSVISSDGGSIYYADSVKGRFTISRDNSKNTLYLQMNSLRAEDTAVYYCAKDRSRDMEVDFDYWGQGTLVTVSS
VL: QSVLTQPPSASGTPGQRVTISCSGSSSNIGSNYVTWYQQLPGTAPKLLIYDKSQRPSGVPDRFSGSKSGTSASLAISGLRSEDEADYYCGTWDYSLNGYVFGGGTKLTVL
As for B13, the binding entry in assay [1], in assay [2], in assay [3] and in assay [4] was “binds” each time.

B14: P015004 (antibody, V domains shown)
VH: EVQLLESGGGLVQPGGSLRLSCAASGFTFSDYAMAWVRQAPGKGLEWVSIIYPGDSETIYSPSFEGRFTISRDNSKNTLYLQMNSLRAEDTAVYYCARDTYWEGYFDLWGQGTLVTVSS
VL: EIVLTQSPGTLSLSPGERATLSCRASQGISNYLAWYQQKPGQAPRLLIYDASNLESGIPDRFSGSGSGTDFTLTISRLEPEDFAVYYCQQYANLPYTFGQGTKVEIK
For B14, the binding entry in assay [1] is given as “binds”; in assay [2] it was “binds”; in assay [5] it was “no binding (tested: 300 nM)”; in assay [3], “binds”; in assay [4] it was “binds”.

B15: P015018 (antibody, V domains shown)
VH: EVQLLESGGGLVQPDGSMRLICAASGFTFSSYAKHWVRQAPGKGLEWVSEIYTSGSTNYNPSLKSRFTISRDNSKNTLYLQMNSLRAEDTAVYYCARDTWWEGYFDLWGQGTLVTVSS
VL: EIVLTQSPGTLSLSPGERATLSCRASQSVSTYLAWYQQKPGQAPRLLIYDASSLESGIPDRFSGSGSGTDFTLTISRLEPEDFAVYYCQQSYNLPHTFGQGTKVEIK
For B15, the binding entry in assay [1] is “binds”; in assay [2], “binds”; in assay [5], “no binding (tested: 300 nM)”; in assay [3] it was “binds”; in assay [4], “binds”.

B16: P015044 (antibody, V domains shown)
VH: EVQLLESGGGLVQPGGSLRLSCAASGFTFSNYAMHWVRQAPGKGLEWVSIIYPDDDTRYNPSFRGRFTISRDNSKNTLYLQMNSLRAEDTAVYYCARDLLYAGDYWGQGTLVTVSS
VL: QSVLTQPPSASGTPGQRVTISCGGNNIESKAVHWYQQLPGTAPKLLIYANNKRPSGVPDRFSGSKSGTSASLAISGLRSEDEADYYCQSYDSNKVVFGGGTKLTVL
Regarding B16, the binding entry is recorded as “binds” in assay [1]; “binds” in assay [2]; “no binding (tested: 300 nM)” in assay [5]; “binds” in assay [3]; “binds” in assay [4].
